Among the data in publication PMC12594893 are binding values, retold here.

The target of assay [1] is T1, Ceramide synthase 6 (CERS6), endogenous in KYSE150 and KYSE450 cells (human (endogenous in KYSE150, KYSE450)) (UniProt Q6ZMG9).
T1 sequence: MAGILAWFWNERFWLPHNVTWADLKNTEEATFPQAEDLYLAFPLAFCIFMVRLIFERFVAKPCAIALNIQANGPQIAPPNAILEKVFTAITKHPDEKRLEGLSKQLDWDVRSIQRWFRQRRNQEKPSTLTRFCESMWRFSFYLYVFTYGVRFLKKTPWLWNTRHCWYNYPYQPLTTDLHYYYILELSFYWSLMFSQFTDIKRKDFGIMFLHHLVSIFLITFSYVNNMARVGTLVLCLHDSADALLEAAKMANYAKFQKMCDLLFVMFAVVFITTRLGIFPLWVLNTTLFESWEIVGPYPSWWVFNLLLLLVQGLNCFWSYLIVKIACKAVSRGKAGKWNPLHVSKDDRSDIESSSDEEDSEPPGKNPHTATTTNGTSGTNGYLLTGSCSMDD
Put plainly: co-IP; ESCC cells (KYSE150, KYSE450, CERS6-overexpressing KYSE70; also KYSE150 and KYSE450 after CERS6 knockout) lysed in 50 mM Tris pH 8.0, 150 mM NaCl, 0.5% NP-40; CERS6 antibody and protein A/G agarose beads overnight at 4 °C; Western blot.

Assay [2] deals with T2, CERS6 Homeobox-like (Hox) domain (1-127), truncated CERS6 (human) (UniProt Q6ZMG9).
T2 sequence: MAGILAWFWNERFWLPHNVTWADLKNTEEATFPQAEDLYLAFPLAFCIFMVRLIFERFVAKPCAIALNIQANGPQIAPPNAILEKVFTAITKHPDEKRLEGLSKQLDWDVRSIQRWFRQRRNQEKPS
Description: co-IP; truncated CERS6 (Hox domain 1-127, TLC domain 128-384) and RPN1; cells and tags not stated.

These are yes or no findings as the source states them, for the method shown. In cells and extracts the contact can be indirect. Some entries that bind do so weakly or less than the wild type.

B1: Ribophorin I (RPN1), endogenous in ESCC cells (protein, UniProt P04843 24-607)
chain: ASSEAPPLINEDVKRTVDLSSHLAKVTAEVVLAHLGGGSTSRATSFLLALEPELEARLAHLGVQVKGEDEEENNLEVRETKIKGKSGRFFTVKLPVALDPGAKISVIVETVYTHVLHPYPTQITQSEKQFVVFEGNHYFYSPYPTKTQTMRVKLASRNVESYTKLGNPTRSEDLLDYGPFRDVPAYSQDTFKVHYENNSPFLTITSMTRVIEVSHWGNIAVEENVDLKHTGAVLKGPFSRYDYQRQPDSGISSIRSFKTILPAAAQDVYYRDEIGNVSTSHLLILDDSVEMEIRPRFPLFGGWKTHYIVGYNLPSYEYLYNLGDQYALKMRFVDHVFDEQVIDSLTVKIILPEGAKNIEIDSPYEISRAPDELHYTYLDTFGRPVIVAYKKNLVEQHIQDIVVHYTFNKVLMLQEPLLVVAAFYILFFTVIIYVRLDFSITKDPAAEARMKVACITEQVLTLVNKRIGLYRHFDETVNRYKQSRDISTLNSGKKSLETEHKALTSEIALLQSRLKTEGSDLCDRVSEMQKLDAQVKELVLKSAVEAERLVAGKLKKDTYIENEKLISGKRQELVTKIDHILDAL
As to B1, in assay [1], the binding entry is “binds”.

B2: RPN1 as used in the co-immunoprecipitation with truncated CERS6 (protein, UniProt P04843 24-607)
chain: ASSEAPPLINEDVKRTVDLSSHLAKVTAEVVLAHLGGGSTSRATSFLLALEPELEARLAHLGVQVKGEDEEENNLEVRETKIKGKSGRFFTVKLPVALDPGAKISVIVETVYTHVLHPYPTQITQSEKQFVVFEGNHYFYSPYPTKTQTMRVKLASRNVESYTKLGNPTRSEDLLDYGPFRDVPAYSQDTFKVHYENNSPFLTITSMTRVIEVSHWGNIAVEENVDLKHTGAVLKGPFSRYDYQRQPDSGISSIRSFKTILPAAAQDVYYRDEIGNVSTSHLLILDDSVEMEIRPRFPLFGGWKTHYIVGYNLPSYEYLYNLGDQYALKMRFVDHVFDEQVIDSLTVKIILPEGAKNIEIDSPYEISRAPDELHYTYLDTFGRPVIVAYKKNLVEQHIQDIVVHYTFNKVLMLQEPLLVVAAFYILFFTVIIYVRLDFSITKDPAAEARMKVACITEQVLTLVNKRIGLYRHFDETVNRYKQSRDISTLNSGKKSLETEHKALTSEIALLQSRLKTEGSDLCDRVSEMQKLDAQVKELVLKSAVEAERLVAGKLKKDTYIENEKLISGKRQELVTKIDHILDAL
Consider B2, for which the binding result in assay [2] was “no binding”.
